Structures were worked out from names or drawings and are uncertain.
Biological target: CCKB receptor (guinea pig cerebral cortex) (Cavia porcellus, UniProt H0VZC5)
Experiment: 125I-CCK-8 receptor binding assay, CCKB
Details: read-out: Activity CCK-B [μM] (IC50); Table 2; guinea pig cerebral cortex membranes
Description: CCKA and CCKB receptor binding assays were performed, by using guinea pig cerebral cortex (CCKB) or rat pancreas (CCKA). Male guinea pig brain tissues were prepared according to the modified method described by Saita et al, [(1994), Characterization of YM022: its CCKB/gastrin receptor binding profile and antagonism to CCK-8-induced Ca2+mobilization., Eur. J. Pharmacol.,269, 249-254]. Pancreatic membranes were prepared in a similar way but by Charpentier et al, [(1988), Cyclic cholecystokinin analogues with high selectivity for central receptors., Proc Natl Acad Sci USA, 85, 1968-1972]. The […] CCK binding assay: Tissues were homogenized in ice cold sucrose (0.32 M, 25 ml) for 15 strokes at 500 rpm and centrifuged at 13000 rpm for 10 mins. The supernatant was re-centrifuged at 13000 rpm for 20 mins. The resulting pellet was re-dispersed to the required volume of buffer at 500 rpm and stored in aliquots at […].
Binding was achieved using a radioligand ^125I-Bolton-Hunter labeled CCK, NEN at 25 pM. The samples were incubated {with membranes (0.1 mg/ml) } in 20 mM Hepes, 1 mM EGTA, 5 mM MgCl2, 150 mm NaCl, 0.25 mg/ml bacitracin at pH 6.5 for 2 hrs at RT and then […] by centrifugation at 1100 rpm for 5 minutes. The membrane pellets were washed twice with water and the bound radioactivity was measured in a Packard Cobra Auto-gamma counter (B5005). All binding assays were carried out with L-363, 260 as an internal non-specific standard. Controls (no compound) were also added. All samples were made in duplicate and repeated twice. All compounds were initially screened for percentage inhibition at 20 μm. Samples showing an average inhibition of <35% were diluted to 2 μm and re-screened and if active diluted again.

Sequences of proteins named here, by UniProt entry; tags and fusion partners are left off. Residues count along the entry.
UniProt H0VZC5, 1-426: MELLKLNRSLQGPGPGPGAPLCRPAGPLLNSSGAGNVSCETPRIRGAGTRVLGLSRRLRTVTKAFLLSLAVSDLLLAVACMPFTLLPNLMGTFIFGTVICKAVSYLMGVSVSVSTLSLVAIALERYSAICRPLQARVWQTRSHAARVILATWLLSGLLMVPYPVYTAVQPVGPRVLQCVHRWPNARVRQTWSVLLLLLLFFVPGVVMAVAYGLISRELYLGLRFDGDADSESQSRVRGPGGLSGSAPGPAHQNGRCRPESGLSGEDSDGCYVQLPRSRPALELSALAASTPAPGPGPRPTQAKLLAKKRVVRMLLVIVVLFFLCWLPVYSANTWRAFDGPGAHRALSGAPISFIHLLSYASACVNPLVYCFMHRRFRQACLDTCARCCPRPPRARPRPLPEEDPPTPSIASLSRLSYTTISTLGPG

IC50 [µM] | SMILES
10.3 | CC1CCC(C(C)C)C(OC2OC(=O)C(Cl)=C2N2CC(C)OC(C)C2)C1 (centres unmarked)
15 | COC1OC(=O)C(Cl)=C1N1CC(C)OC(C)C1 (centres unmarked)
> 20 | C#CCOC1OC(=O)C(Cl)=C1N1CCc2ccccc21 (centres unmarked)
1 | COC1OC(=O)C(Cl)=C1NCc1ccccc1 (centres unmarked)
18.5 | C=COC1OC(=O)C(Cl)=C1N1CCc2ccccc21 (centres unmarked)
> 20 | Cc1c(NC2=C(Cl)C(=O)OC2Cl)c(=O)n(-c2ccccc2)n1C (centres unmarked)
> 20 | C=COC1OC(=O)C(Cl)=C1n1cnc2ccccc21 (centres unmarked)
1.2 | CCCCCCCCCCCCCCCCOC1OC(=O)C(Cl)=C1n1cnc2ccccc21 (centres unmarked)
> 20 | O=C1OC(Cl)C(N2CCc3ccccc32)=C1Cl (centres unmarked)
14 | COC1OC(=O)C(Cl)=C1N1CCN(Cc2ccccc2)CC1 (centres unmarked) [Example A8B16]
0.24 | CCCCCCCCCCCCCCCCOC1OC(=O)C(Cl)=C1NCc1ccccc1Cl (centres unmarked)
13.9 | CCCCCCCCCCCCCCCCOC1OC(=O)C(Cl)=C1N1CCN(Cc2ccccc2)CC1 (centres unmarked)

SMILES | IC50 [µM]
CC(C)OC1OC(=O)C(Cl)=C1N1CCN(Cc2ccccc2)CC1 (centres unmarked) | > 20
COC1OC(=O)C(Cl)=C1NCCc1ccccc1 (centres unmarked) | 0.9
